Measurements: the Bradley open melting point set (2014)

- melting point: 45 °C
SMILES: CCC[C@H](NC(=O)OC(C)(C)C)C(=O)O [N-boc-L-norvaline]
